PubChem BioAssay AID1259308 | NCATS – 2017

Purpose: 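Genes whose loss raises luciferase production in HEK293 cells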 (primary screen)
Cells: human HEK293 embryonic kidney cells stably expressing firefly luciferase (HEK-CMV-Luc2-Hygro)
Reagents: single siRNA against human genes, 0.8 pmol siRNA per well
Duration: 72 h
Read-out: 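Luciferase light (ONE-Glo) measured on one replicate plate set and viability (CellTiter-Glo) on the other, scaled to a negative control siRNA, with robust z-scores and luciferase per cell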
Scale: total luciferase, z-score and total luciferase, % of control: higher = more reporter protein produced; luciferase per cell, z-score: higher = more reporter output per viable cell; viable cells, % of control: higher = more viable cells
Call rule: 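An siRNA counts as active if its total luciferase robust z-score exceeds 3; genes with two or more such siRNAs out of three were retested with fresh siRNAs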
Calls: active = raised luciferase; inactive = no rise
Here is one part, drawn at random, of about 59,000 reagents tested. About 1,510 of them (2.6%) were called active. 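Calls use total luciferase alone and ignore viability, so some active siRNAs may act by altering cell number.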

The first 3 records, to show the layout:
no.	gene symbol	PubChem SID	total luciferase, z-score	total luciferase, % of control	luciferase per cell, z-score	viable cells, % of control	outcome
1	ATP1B1 (GeneID 481)	SID160721432	-0.263	76.6	-0.605	100	inactive
2	ATP1B1 (GeneID 481)	SID160721443	-1.03	61.5	-1.13	92.5	inactive
3	ATP1B1 (GeneID 481)	SID160721452	-1.73	47.5	-1.11	71.1	inactive

The list itself, repeating the preview:
no.	gene symbol	PubChem SID	total luciferase, z-score	total luciferase, % of control	luciferase per cell, z-score	viable cells, % of control	outcome
1	ATP1B1 (GeneID 481)	SID160721432	-0.263	76.6	-0.605	100	inactive
2	ATP1B1 (GeneID 481)	SID160721443	-1.03	61.5	-1.13	92.5	inactive
3	ATP1B1 (GeneID 481)	SID160721452	-1.73	47.5	-1.11	71.1	inactive
4	EP400P1 (GeneID 347918)	SID160734328	-1.7	48.1	-1.69	83.9	inactive
5	EP400P1 (GeneID 347918)	SID160771692	0.422	90.3	0.324	92.6	inactive
6	EP400P1 (GeneID 347918)	SID160771693	0.358	89	0.423	89	inactive
7	CASR (GeneID 846)	SID160736885	0.576	93.3	0.604	89	inactive
8	CASR (GeneID 846)	SID160736896	1.35	109	1.22	88.2	inactive
9	CASR (GeneID 846)	SID160736906	0.00531	82	-0.0319	92.4	inactive
10	ZBTB3 (GeneID 79842)	SID160749580	-0.183	78.2	-0.381	96.7	inactive
11	ZBTB3 (GeneID 79842)	SID160749581	0.0955	83.8	-0.0227	94.2	inactive
12	ZBTB3 (GeneID 79842)	SID160749582	-0.685	68.3	0.817	61.5	inactive
13	RPS29P3 (GeneID 642892)	SID160725587	0.479	91.4	0.199	96.9	inactive
14	RPS29P3 (GeneID 642892)	SID160725588	-1.63	49.5	-1.18	75.4	inactive
15	RPS29P3 (GeneID 642892)	SID160733792	-2.69	28.5	-2.32	58.6	inactive
16	RNF166 (GeneID 115992)	SID160755304	-1.44	53.2	-0.527	68.3	inactive
17	RNF166 (GeneID 115992)	SID160755305	0.378	89.4	1.27	71.5	inactive
18	RNF166 (GeneID 115992)	SID160755306	-0.44	73.1	-0.521	93.7	inactive
19	C7 (GeneID 730)	SID160729970	-0.18	78.3	-0.0929	89.7	inactive
20	C7 (GeneID 730)	SID160729979	0.214	86.1	1.37	67.1	inactive
21	C7 (GeneID 730)	SID160729988	0.654	94.9	0.642	89.6	inactive
22	COLGALT1 (GeneID 79709)	SID160749245	0.291	87.7	0.435	87.4	inactive
23	COLGALT1 (GeneID 79709)	SID160749246	-0.515	71.6	-0.813	99.2	inactive
24	COLGALT1 (GeneID 79709)	SID160749247	-0.348	75	-1.03	110	inactive
